Record: PubChem BioAssay AID652243 (Drosophila RNAi Screening Center, 2013)

Assay: 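Fly regulators of androgen-dependent reporter output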 (primary screen)
System: Drosophila S2R+ cells
Reagent: long dsRNA against Drosophila genes
Timing: 72 h (48 h, then 24 h hormone)
Challenge: synthetic androgen R1881 at 10 nM for 24 h
Detection: 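Per-well raw luminescence of the androgen-driven firefly reporter and of the Renilla control, two replicates each, without normalisation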
Direction: firefly reporter light: higher = more light from androgen-responsive reporter; Renilla control light: higher = more constitutive control signal (cell number, transfection)
Active means: 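Across duplicate plates, a knock-down whose log firefly/Renilla ratio shifted a set fold down or up from the GFP/LacZ control mean was a hit; the downward cut appears as both 1.5 and 3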
Meaning of the calls: active = hit: reporter lowered or raised; inactive = no hit
The deposit covers about 24,000 reagents; shown is an unselected part of those with a known target gene and a result. Of all reagents, 246 (1%) were called active. 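Plates not normalised; calls are printed but the firefly/Renilla ratio behind them is not deposited; fold cut for lowering reported inconsistently.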 Raw values are not corrected between plates. The numbers tell different reagents against one gene apart. A plus sign joins genes that one reagent is predicted to hit. The record does not give: the amount of reagent.

The opening 4 entries, to show the layout:
gene	dsRNA no.	firefly reporter light, replicate 1	firefly reporter light, replicate 2	Renilla control light, replicate 1	Renilla control light, replicate 2	outcome
CG32547	1	4.52e5	4.96e5	6.12e5	4.67e5	inactive
CG32547	2	3.29e5	3.75e5	3.80e6	3.58e6	inactive
CG6567	1	97782	1.07e5	1.40e6	1.31e6	inactive
Pvf2 (PDGF- and VEGF-related factor 2)	1	5.59e5	5.47e5	3.56e6	2.97e6	inactive

Main list, from the start:
gene	dsRNA no.	firefly reporter light, replicate 1	firefly reporter light, replicate 2	Renilla control light, replicate 1	Renilla control light, replicate 2	outcome
CG32547	1	4.52e5	4.96e5	6.12e5	4.67e5	inactive
CG32547	2	3.29e5	3.75e5	3.80e6	3.58e6	inactive
CG6567	1	97782	1.07e5	1.40e6	1.31e6	inactive
Pvf2 (PDGF- and VEGF-related factor 2)	1	5.59e5	5.47e5	3.56e6	2.97e6	inactive
Pvf2 (PDGF- and VEGF-related factor 2)	2	2.32e5	2.10e5	1.93e6	1.71e6	inactive
OSCP1	1	1.89e5	1.77e5	9.71e5	6.49e5	inactive
CR33283 (pseudo)	1	6.62e5	1.09e6	1.47e6	1.60e6	inactive
Lmx1a (LIM homeobox transcription factor 1 alpha)	1	1.07e5	1.36e5	1.16e6	1.06e6	inactive
Lmx1a (LIM homeobox transcription factor 1 alpha)	2	3.18e5	2.55e5	8.42e5	7.97e5	inactive
CG1571	1	4.98e5	4.97e5	1.99e6	2.50e6	inactive
CR13656 (pseudo)	1	52753	79303	1.38e5	1.16e5	inactive
CR13656 (pseudo)	2	2.21e5	2.20e5	2.72e6	2.76e6	inactive
CG15818	1	8.19e5	8.23e5	2.33e6	2.21e6	inactive
CG15818	2	3.30e5	7.11e5	7.38e5	1.65e6	inactive
CG12637	1	3.39e5	3.83e5	2.53e6	3.29e6	inactive
CG12637	2	3.18e5	2.65e5	1.09e6	1.03e6	inactive
CG32536	1	5.95e5	3.87e5	1.81e6	9.64e5	inactive
Vajk2	1	2.48e5	2.28e5	1.88e6	2.13e6	inactive
Vajk2	2	6.50e5	7.89e5	8.70e5	9.36e5	inactive
CG4957	1	1.45e5	1.25e5	1.49e6	1.32e6	inactive
CG4957	2	3.56e5	6.11e5	1.21e6	1.21e6	inactive
rictor (rapamycin-insensitive companion of Tor)	1	1.18e5	1.08e5	3.99e5	2.96e5	inactive
CG5445	1	6.58e5	5.16e5	9.12e5	5.76e5	inactive
mRpS31 (mitochondrial ribosomal protein S31)	1	96847	53807	9.55e5	5.07e5	inactive
CG13313	1	1.98e5	2.19e5	1.88e6	1.81e6	inactive
CG13313	2	4.36e5	6.65e5	1.27e6	1.57e6	inactive
CG14562	1	2.67e5	3.05e5	2.34e6	2.35e6	inactive
mRF1 (mitochondrial translation release factor 1)	1	8.21e5	8.60e5	1.52e6	1.30e6	inactive
mRF1 (mitochondrial translation release factor 1)	2	3.00e5	2.95e5	1.16e6	1.16e6	active
ng2 + ng1	1	9.42e5	6.20e5	5.53e5	5.35e5	inactive
CG12811	1	2.35e5	1.77e5	3.13e6	3.51e6	inactive
CG14502	1	9.16e5	1.22e6	1.82e6	1.61e6	inactive
robo3 (roundabout 3)	1	93991	73933	7.65e5	8.46e5	inactive
robo3 (roundabout 3)	2	1.04e5	81795	8.21e5	9.11e5	inactive
Nap1 (Nucleosome assembly protein 1)	1	1.21e6	8.57e5	1.40e6	1.51e6	inactive
Jon66Cii (Jonah 66Cii)	1	1.76e5	1.44e5	1.69e6	1.68e6	inactive
Jon66Cii (Jonah 66Cii)	2	6.80e5	6.22e5	1.48e6	1.86e6	inactive
CG11600	1	86963	89520	1.63e6	1.29e6	inactive
CG11600	2	8.80e5	9.48e5	1.17e6	1.42e6	inactive
DIP-eta (Dpr-interacting protein eta)	1	2.15e5	1.79e5	1.90e6	1.34e6	inactive
